Experimental data published in the supplement of paper PMC7661543.
Differences between knockout arms are mostly noise.

What was measured:
HCC-38 = experiment: relative cell number vs DMSO control (72 h) (% of DMSO); higher = less growth inhibition (more cells)
Description: (§1)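 QMAP-Seq: a pool of 5 breast cancer cell lines (ZR-75-1, SKBR3, HCC-38, MDA-MB-231, BT-20), each carrying 12 doxycycline-inducible Cas9 sgRNA perturbations (11 knockouts plus non-targeting sgNT), was treated with compounds for 72 h at four 10-fold doses (10 nM-10 uM or 1 nM-1 uM range). Barcodes were amplified and sequenced, and cell number was interpolated from 293T spike-in standard curves. The result is expressed as % of the median of DMSO wells. Two biological replicates.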

BT-20 = experiment: as above
Description: as §1

CC(C)OC(=O)C1=CN(C(=O)c2ccc(F)c(F)c2)CC(C)(C)c2c1[nH]c1ccccc21
relative cell number
Details	BT-20	HCC-38
sgRNA knockout: sgATF3, 10 nM	93.8	95.5
sgRNA knockout: sgATF3, 100 nM	82.8	87.2
sgRNA knockout: sgATF3, 1000 nM	95.1	97.9
sgRNA knockout: sgATF3, 10000 nM	86.8	82.7
sgRNA knockout: sgATF4, 10 nM	87.4	89.4
sgRNA knockout: sgATF4, 100 nM	100	92.5
sgRNA knockout: sgATF4, 1000 nM	97.4	95.1
sgRNA knockout: sgATF4, 10000 nM	106	82.6
sgRNA knockout: sgATF6, 10 nM	93.5	96.8
sgRNA knockout: sgATF6, 100 nM	77	97.2
sgRNA knockout: sgATF6, 1000 nM	113	97.9
sgRNA knockout: sgATF6, 10000 nM	101	101
sgRNA knockout: sgATG7, 10 nM	92.34	94.5
sgRNA knockout: sgATG7, 100 nM	94.5	93.5
sgRNA knockout: sgATG7, 1000 nM	105	97.3
sgRNA knockout: sgATG7, 10000 nM	95.7	92.22
sgRNA knockout: sgERN1, 10 nM	98.2	90.9
sgRNA knockout: sgERN1, 100 nM	82.2	89.6
sgRNA knockout: sgERN1, 1000 nM	103.5	91.4
sgRNA knockout: sgERN1, 10000 nM	110	90.7
sgRNA knockout: sgHSF1, 10 nM	90.462	102
sgRNA knockout: sgHSF1, 100 nM	91.58	93.7
sgRNA knockout: sgHSF1, 1000 nM	87.5	92.32
sgRNA knockout: sgHSF1, 10000 nM	98.6	105
sgRNA knockout: sgHSF2, 10 nM	98	85.7
sgRNA knockout: sgHSF2, 100 nM	96	92.17
sgRNA knockout: sgHSF2, 1000 nM	91.6	93.1
sgRNA knockout: sgHSF2, 10000 nM	96.3	97.2
sgRNA knockout: sgKEAP1, 10 nM	91.4	100
sgRNA knockout: sgKEAP1, 100 nM	91.3	93.3
sgRNA knockout: sgKEAP1, 1000 nM	99.1	88.8
sgRNA knockout: sgKEAP1, 10000 nM	93.9	102
sgRNA knockout: sgNFE2L2, 10 nM	95.4	90.8
sgRNA knockout: sgNFE2L2, 100 nM	85.6	96.6
sgRNA knockout: sgNFE2L2, 1000 nM	102	86.8
sgRNA knockout: sgNFE2L2, 10000 nM	97.9	87.9
sgRNA knockout: sgSLC35F2, 10 nM	92.6	99.9
sgRNA knockout: sgSLC35F2, 100 nM	83.9	88.3
sgRNA knockout: sgSLC35F2, 1000 nM	95.2	91.4
sgRNA knockout: sgSLC35F2, 10000 nM	112	101
sgRNA knockout: sgXBP1, 10 nM	91.8	90.4
sgRNA knockout: sgXBP1, 100 nM	111	92
sgRNA knockout: sgXBP1, 1000 nM	108	99.3
sgRNA knockout: sgXBP1, 10000 nM	108	94.3
